Measurements reported in PubChem BioAssay AID1259254 (NCATS, 2017).

Assay: 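Genome-wide screen for genes that prevent DNA re-replication in cancer cells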 (primary screen)
System: human HCT116 colorectal cancer cells
Reagent: single siRNA against human genes
Timing: 3 days
Measured: 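Nuclei stained with Hoechst and imaged; cell-cycle phase assigned by DNA content; G2 share scaled per plate, non-targeting siRNA 0%, GMNN siRNA 100%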
Reading the numbers: G2 robust z-score: higher = more G2 cells, more excess DNA replication
Call rule: 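An siRNA counts as active if its G2 robust z-score lies at least 5 MADs above the screen median; here such calls match roughly 38% of GMNN control or more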
Shown is one part, drawn at random, of about 59,000 deposited reagents. About 1,550 of all reagents (2.6%) count as active. 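G2 share is only a proxy for re-replication; each gene was hit by three separate siRNAs, and active genes were retested.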 Reagents against one gene are numbered here. Further read-outs or replicates are left out here. Not stated in the record: the amount of reagent.

gene | reagent | G2 robust z-score | outcome
ZNF766 | 1 | 0.512 | inactive
ZNF766 | 2 | 0.507 | inactive
ZNF766 | 3 | -0.378 | inactive
RPL27P8 | 1 | -0.434 | inactive
RPL27P8 | 2 | -0.461 | inactive
RPL27P8 | 3 | -0.371 | inactive
TPSG1 | 1 | -0.208 | inactive
TPSG1 | 2 | -1.16 | inactive
TPSG1 | 3 | 0.2 | inactive
GBP3 | 1 | 7.07 | active
GBP3 | 2 | 0.702 | inactive
GBP3 | 3 | 0.567 | inactive
TXNDC8 | 1 | 1.13 | inactive
TXNDC8 | 2 | -0.209 | inactive
TXNDC8 | 3 | -0.533 | inactive
GDF1 | 1 | 0.202 | inactive
GDF1 | 2 | 0.478 | inactive
GDF1 | 3 | 1.36 | inactive
SLCO1A2 | 1 | -0.717 | inactive
SLCO1A2 | 2 | 0.221 | inactive
SLCO1A2 | 3 | 6.93 | active
CAVIN2 | 1 | -0.593 | inactive
CAVIN2 | 2 | -0.882 | inactive
CAVIN2 | 3 | -0.655 | inactive
FTHL18P | 1 | 5.35 | active
FTHL18P | 2 | 1.53 | inactive
FTHL18P | 3 | 0.316 | inactive
TAS2R14 | 1 | 1.32 | inactive
TAS2R14 | 2 | 0.117 | inactive
TAS2R14 | 3 | 1.96 | inactive
